These are yes or no findings as the source states them, for the method shown. Some results given as binding are weak or reduced against the parent protein; the word gives no strength.
Biological target: ATM/Tel1, basal state (Schizosaccharomyces pombe) (UniProt O74630)
Experiment: SPR; CHK2 (full length or peptide) at varied concentrations on basal or active ATM/Tel1; both purified

Sequences of proteins named here, by UniProt entry; tags and fusion partners are left off.
UniProt O74630: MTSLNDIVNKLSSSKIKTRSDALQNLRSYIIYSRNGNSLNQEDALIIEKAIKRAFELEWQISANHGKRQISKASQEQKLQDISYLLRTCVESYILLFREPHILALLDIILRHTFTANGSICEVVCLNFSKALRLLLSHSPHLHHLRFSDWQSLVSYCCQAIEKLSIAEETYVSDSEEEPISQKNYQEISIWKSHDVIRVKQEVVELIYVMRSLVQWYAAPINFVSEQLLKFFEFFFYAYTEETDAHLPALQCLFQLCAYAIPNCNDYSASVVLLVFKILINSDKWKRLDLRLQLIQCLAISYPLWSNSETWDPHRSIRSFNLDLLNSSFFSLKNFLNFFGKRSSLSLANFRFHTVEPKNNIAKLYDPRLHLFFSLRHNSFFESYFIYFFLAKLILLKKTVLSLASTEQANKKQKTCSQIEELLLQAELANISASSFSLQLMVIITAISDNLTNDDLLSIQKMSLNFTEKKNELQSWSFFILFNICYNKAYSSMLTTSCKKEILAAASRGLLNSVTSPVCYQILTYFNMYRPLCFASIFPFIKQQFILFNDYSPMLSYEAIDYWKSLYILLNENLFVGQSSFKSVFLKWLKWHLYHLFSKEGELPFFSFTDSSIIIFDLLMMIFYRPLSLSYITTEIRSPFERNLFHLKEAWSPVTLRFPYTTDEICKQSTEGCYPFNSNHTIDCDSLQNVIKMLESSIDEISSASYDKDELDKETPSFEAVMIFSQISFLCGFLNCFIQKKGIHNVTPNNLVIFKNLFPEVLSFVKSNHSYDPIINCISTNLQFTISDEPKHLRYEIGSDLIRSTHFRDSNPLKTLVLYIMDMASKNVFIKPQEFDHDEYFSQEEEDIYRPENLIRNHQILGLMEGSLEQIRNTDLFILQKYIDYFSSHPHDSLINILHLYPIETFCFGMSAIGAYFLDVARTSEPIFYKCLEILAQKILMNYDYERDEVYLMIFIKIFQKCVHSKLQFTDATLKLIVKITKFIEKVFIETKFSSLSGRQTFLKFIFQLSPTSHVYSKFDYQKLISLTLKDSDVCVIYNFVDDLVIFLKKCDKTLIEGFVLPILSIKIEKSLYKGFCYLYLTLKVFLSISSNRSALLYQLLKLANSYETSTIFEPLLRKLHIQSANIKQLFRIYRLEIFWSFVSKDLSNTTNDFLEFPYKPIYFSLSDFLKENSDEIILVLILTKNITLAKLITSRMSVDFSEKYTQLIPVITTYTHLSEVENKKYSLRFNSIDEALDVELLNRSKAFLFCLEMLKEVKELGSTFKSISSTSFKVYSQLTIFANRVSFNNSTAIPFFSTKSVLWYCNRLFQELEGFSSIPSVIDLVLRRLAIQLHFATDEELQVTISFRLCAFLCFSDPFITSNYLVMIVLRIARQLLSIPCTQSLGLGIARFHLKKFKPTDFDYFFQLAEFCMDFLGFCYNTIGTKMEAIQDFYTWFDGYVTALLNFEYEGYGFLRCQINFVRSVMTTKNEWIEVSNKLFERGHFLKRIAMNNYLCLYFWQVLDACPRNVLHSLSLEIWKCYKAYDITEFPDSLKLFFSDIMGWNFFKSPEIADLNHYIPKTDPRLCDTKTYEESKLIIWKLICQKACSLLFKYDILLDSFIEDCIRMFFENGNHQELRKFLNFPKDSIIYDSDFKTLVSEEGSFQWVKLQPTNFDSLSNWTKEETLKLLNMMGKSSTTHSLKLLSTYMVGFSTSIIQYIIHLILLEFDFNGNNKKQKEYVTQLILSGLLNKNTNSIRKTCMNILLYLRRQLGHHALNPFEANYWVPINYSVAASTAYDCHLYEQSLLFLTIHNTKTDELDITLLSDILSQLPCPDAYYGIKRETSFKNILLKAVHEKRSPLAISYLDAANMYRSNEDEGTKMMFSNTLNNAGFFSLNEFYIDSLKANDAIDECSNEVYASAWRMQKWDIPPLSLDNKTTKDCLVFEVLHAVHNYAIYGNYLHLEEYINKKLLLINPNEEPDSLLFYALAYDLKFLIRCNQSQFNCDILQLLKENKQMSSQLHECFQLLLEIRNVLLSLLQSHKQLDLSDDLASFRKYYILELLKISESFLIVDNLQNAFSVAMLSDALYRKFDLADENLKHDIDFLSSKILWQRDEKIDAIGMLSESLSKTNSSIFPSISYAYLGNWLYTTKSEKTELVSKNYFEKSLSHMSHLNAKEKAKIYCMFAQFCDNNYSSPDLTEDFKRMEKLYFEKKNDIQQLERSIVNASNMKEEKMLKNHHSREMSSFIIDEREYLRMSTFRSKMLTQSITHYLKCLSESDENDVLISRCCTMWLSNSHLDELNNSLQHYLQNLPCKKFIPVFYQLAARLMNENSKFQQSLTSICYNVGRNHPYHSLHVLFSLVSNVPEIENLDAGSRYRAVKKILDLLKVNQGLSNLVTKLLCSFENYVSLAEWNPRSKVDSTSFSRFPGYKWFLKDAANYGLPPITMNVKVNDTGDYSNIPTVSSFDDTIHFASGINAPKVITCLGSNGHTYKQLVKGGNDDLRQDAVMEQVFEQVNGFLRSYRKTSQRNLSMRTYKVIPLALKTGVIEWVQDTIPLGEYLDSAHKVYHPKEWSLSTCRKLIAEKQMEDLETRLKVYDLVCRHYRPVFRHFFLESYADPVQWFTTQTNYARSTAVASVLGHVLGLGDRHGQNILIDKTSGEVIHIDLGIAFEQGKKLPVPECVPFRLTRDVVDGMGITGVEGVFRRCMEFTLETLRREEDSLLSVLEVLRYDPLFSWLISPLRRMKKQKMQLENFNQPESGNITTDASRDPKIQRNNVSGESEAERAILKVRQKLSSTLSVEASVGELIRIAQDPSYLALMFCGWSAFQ
UniProt O96017: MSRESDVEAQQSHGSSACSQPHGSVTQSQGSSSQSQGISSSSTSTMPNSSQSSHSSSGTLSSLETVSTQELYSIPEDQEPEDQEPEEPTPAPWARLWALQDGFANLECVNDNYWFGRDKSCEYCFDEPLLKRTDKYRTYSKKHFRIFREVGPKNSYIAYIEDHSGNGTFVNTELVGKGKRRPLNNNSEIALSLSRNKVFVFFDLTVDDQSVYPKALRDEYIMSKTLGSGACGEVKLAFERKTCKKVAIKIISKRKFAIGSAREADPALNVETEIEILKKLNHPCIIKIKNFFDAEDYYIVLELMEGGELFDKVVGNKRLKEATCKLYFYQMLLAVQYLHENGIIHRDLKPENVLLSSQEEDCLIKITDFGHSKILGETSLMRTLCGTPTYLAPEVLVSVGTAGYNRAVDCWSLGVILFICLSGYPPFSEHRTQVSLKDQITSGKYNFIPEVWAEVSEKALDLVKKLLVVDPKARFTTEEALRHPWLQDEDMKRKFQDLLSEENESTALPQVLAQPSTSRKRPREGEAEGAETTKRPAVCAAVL

## full-length CHK2 (from UniProt O96017 1-543)
  binding: binds

— paper PMC11933327, “Asymmetric activation of dimeric ATM/Tel1 kinase” (Cell Discovery, 2025)
